Test results: PMC11868397
These are yes or no findings as the source states them, for the method shown. Binding seen in cells or lysates may run through a third protein. Some entries that bind do so weakly or less than the wild type. Blank lines part the entries; values can stand above or below the binder they belong to.

Assays:
[1] = biological target: T1, endogenous USP35 (ID8 cells) (mouse (endogenous in ID8)) (UniProt M0QWN7); assay: co-IP; endogenous proteins in ID8 lysate; indicated antibody (anti-USP35 or anti-MAVS) and protein A/G beads 3 h at 4 °C; immunoblot
T1 sequence: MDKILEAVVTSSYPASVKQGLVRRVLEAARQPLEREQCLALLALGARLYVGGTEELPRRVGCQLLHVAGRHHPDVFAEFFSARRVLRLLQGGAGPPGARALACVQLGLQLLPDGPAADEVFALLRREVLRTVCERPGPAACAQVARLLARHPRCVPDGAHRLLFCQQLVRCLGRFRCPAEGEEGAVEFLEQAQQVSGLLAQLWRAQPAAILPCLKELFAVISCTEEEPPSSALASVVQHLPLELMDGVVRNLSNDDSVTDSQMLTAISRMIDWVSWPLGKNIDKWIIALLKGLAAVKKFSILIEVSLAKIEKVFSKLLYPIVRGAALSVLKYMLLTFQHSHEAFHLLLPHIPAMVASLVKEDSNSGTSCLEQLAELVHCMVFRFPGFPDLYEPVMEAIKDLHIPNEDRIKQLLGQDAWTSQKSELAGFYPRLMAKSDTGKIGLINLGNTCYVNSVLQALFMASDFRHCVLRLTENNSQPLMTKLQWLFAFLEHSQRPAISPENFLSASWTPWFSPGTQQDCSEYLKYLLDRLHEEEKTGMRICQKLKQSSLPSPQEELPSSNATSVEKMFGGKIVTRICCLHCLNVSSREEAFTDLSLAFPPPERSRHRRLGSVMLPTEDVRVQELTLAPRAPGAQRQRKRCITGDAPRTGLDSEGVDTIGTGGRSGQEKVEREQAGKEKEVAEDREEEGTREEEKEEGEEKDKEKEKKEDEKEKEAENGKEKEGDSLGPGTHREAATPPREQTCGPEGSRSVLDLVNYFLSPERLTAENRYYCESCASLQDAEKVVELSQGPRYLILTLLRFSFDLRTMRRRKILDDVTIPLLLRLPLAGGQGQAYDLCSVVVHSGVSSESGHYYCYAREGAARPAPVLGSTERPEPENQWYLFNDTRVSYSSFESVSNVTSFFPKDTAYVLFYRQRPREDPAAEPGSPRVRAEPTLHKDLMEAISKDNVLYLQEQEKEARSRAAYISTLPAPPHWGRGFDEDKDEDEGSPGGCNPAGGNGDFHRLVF

[2] = biological target: T2, endogenous MAVS (ID8 cells) (mouse (endogenous in ID8)) (UniProt Q8VCF0); assay: as above
T2 sequence: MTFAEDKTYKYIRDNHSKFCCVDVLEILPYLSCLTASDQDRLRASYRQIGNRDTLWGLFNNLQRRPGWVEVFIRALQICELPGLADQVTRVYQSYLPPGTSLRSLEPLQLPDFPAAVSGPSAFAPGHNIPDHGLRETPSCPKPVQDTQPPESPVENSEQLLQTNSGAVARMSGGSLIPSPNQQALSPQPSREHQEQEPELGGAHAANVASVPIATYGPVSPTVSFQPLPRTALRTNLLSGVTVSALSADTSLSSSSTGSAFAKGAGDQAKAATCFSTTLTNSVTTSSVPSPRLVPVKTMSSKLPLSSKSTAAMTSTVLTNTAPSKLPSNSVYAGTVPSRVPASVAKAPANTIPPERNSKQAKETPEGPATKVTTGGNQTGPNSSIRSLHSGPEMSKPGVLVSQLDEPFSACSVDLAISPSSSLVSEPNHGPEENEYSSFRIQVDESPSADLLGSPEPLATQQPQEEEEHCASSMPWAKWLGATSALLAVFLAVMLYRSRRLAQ

binding [1]: binds
B1: endogenous MAVS (ID8 cells) (protein, UniProt Q8VCF0 1-503)
chain: T2 sequence

binding [2]: binds
B2: endogenous USP35 (ID8 cells) (enzyme, UniProt M0QWN7 1-1009)
chain: T1 sequence
